Data reported in article PMC12170584.
These are yes or no findings as the source states them, for the method shown. Binding seen in cells or lysates may run through a third protein. Here binding means that the protein was enriched with, or labelled near, the bait; the list need not be complete.

B1: Minichromosome Maintenance Complex Component 3 (protein, UniProt Q5ZMN2 1-812)
chain: MAAPAGGLGDAELREAQRDYLDFLDDEEDQGVYHGKVRDMISDNQYRLLVNINDLRRRNEKRANRLLSNAFEELIAFQRALKDFVASVDATYAKQYEDFYIGLEGSFGSKHVSPRTLTACFLSCIVCVEGIVTKCSLIRPKVVRSVHYCPATKKTIERRYTDLTSLDAFPSSTVYPTKDEENNPLETEYGLSVYKDHQTISIQEMPEKAPAGQLPRSVDVILDDDLVDKVKPGDRIQVVGTYRCLPGKKGGYTSGTFRTILIACHIKQMSKDARPLYSANDVAKIKRFSKSRSKDIFNQLARSLAPSIHGHEFIKKALLCMLLGGVEKVLENGSRIRGDINILLIGDPSVAKSQLLRYVLGTAPRAVGTTGRGSSGVGLTAAVTTDQETGERRLEAGAMVLADRGVVCIDEFDKMSDIDRTAIHEVMEQGRVTIAKAGIHARLNSRCSVLAAANPVYGRYDQYKTPMENIGLQDSLLSRFDLLFIMLDQMDSEQDREISDHVLRMHRYRNPNEQDGDAMPLGSAVEILATDDPDFAQEEEQELQVYEKHDDLLHGPNRRKEKIVSMEFMRKYIHVAKMIKPVLTQESADYIAEEYSSLRSQNQMNSDIARTSPVTARTLETLIRLSTAHAKARMSKTVDLQDAEAALELVQFAYFKKVLEKEKKRKKQVEDDSETEKEEEEEETQPEKEGRKQRRKKARTEGEEESYDPYDFSDAEQEMPEVQAHTPKTPESSATGEAKKPELADPRLKAFKAALLEVFKSSHAQSVGLKNVMESINRDNPEPFSLAGVKVALAHMQDDNQIMVSDDIIFLI
B2: Peroxiredoxin-1 (protein, UniProt P0CB50 1-199)
chain: MSSGKAFIGKPAPDFTATAVMPDGQFKDIKLSDYRGKYVVFFFYPLDFTFVCPTEIIAYSDRADEFKKINCEIIGASVDSHFCHLAWINTPKKQGGLGTMKIPLVSDTKRVIAKDYGVLKEDEGIAYRGLFIIDEKGILRQITINDLPVGRSVDETLRLVQAFQFTDKHGEVCPAGWKPGSDTIKPDVQKSKEYFSKQK
B3: chaperonin-containing TCP-1 subunit 7 (CCT7) (protein, UniProt Q5ZJK8 1-553)
chain: MMPTPVILLKEGTDTSQGIPQLVSNINACQVIAEAVRTTLGPRGMDKLIVDDRGKATISNDGATILKLLDVVHPAAKTLVDIAKSQDAEVGDGTTSVTLLAAEFLKQVKPYVEEGLHPQIIIRAFRTATQLAVNKIKDIAVSVKKEDKDEQRSLLEKCAATALSSKLISQSKEFFSKMVVDAVMMLDDLLQLKMIGIKKVQGGALEDSQLVAGVAFKKTFSYAGFEMQPKKYQSPKIALLNVELELKAEKDNAEVRVNTVEDYQAIVDAEWNILYDKLDKIHKSGAKVVLSKLPIGDVATQYFADRDMFCAGRVPEEDLKRTMMACGGSIQTSVNALSDDVLGRCELFEEIQIGGDRYNFFTGCPKAKTCTIILRGGAEQFMEETERSLHDAIMIVRRAIKNDSVVAGGGAIEMELSKYLRDYSRTIPGKQQLLIGAYAKALEIIPRQLCDNAGFDATNILNKLRAKHAQGGMWYGVDVNNEDIADNFEACVWEPAIVRINALTAASEAACLIVSVDETIKNPRSTVDAPPGGRGRGRGQTPQPLRPRSVALS

Molecular target: FAdV-4 hexon protein (flag-TST-hexon) (fowl adenovirus serotype 4 (FAdV-4))
Assay: affinity purification with mass spectrometry; tandem affinity purification (TST resin, biotin elution; then anti-FLAG magnetic beads, 3xFLAG peptide elution) of flag-TST-hexon from LMH cell lysate, 4°C; flag empty vector as control; eluate digested for MS

| Binder | binding |
| --- | --- |
| B1 | binds |
| B2 | binds |
| B3 | binds |
